Assay results from PubChem BioAssay (NCATS).
Where “and” joins values, the source holds several entries; their conditions need not be identical. Identical values can stand only once. The list shows a part of the results. The main result of the screen is listed elsewhere. These columns were measured beside it and carry no call. Compounds called inactive in the main read-out are mostly missing here. Potencies come from curve fits of mixed quality, noted in brackets.

Assay: qHTS Assay for Inhibitors of PDE-IV (AID 607)
Settings: HEK293 ACTOne CNG channel cells, membrane potential fluorescence; measured here: parental cell counter-screen
How it was run: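 The readout is membrane depolarisation from a cAMP-sensing CNG channel, detected with a potential dye at ex 535/em 590. Cells were HEK293-derived (endogenous PDE-IV) at 1000 cells/well, titrated up to 22.9 uM final.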

Compound | AC50
O[C@@](CCN1CCCC1)(c1ccccc1)C1CCCCC1 | 10 µM [rising, single point]
CCCC[C@@H]1C[C@H]1C(NC(=O)c1ccccc1)c1ccc(C(=O)OC)cc1 (stereo not given in full) | 6.31 µM [rising, partial curve]
c1ccc(Nc2ncnc3ccc(-c4ccc5c(c4)OCO5)cc23)cc1 | 12.6 µM [rising, single point]
c1ccc(CN2CCC3(CCc4ccccc43)CC2)cc1 | 12.6 µM [rising, partial curve]
C[C@@H](C(=O)NCC1CC1)[C@H]1C[C@]1(C)[C@H](NC(=O)OCc1ccccc1)c1ccccc1 | 0.398 µM [rising, single point]
Cc1cccc(CNc2ncnc3ccc(-c4ccccc4CN(C)C)cc23)c1 | 12.6 µM [rising, partial curve]
COc1ccccc1CNc1ncnc2ccc(-c3ccccc3OC)cc12 | 15.8 µM [rising, single point]
O=C(Oc1ccccc1)N1CCC2(CCCN(c3ccccc3)C2)CC1 | 10 µM [rising, single point]
CC(C)NC(=O)N1CCC2(CC1)CCN(C(=O)c1cccc(F)c1)CC2 | 3.98 µM [rising, single point]
O=C(O)/C=C\c1ccc(Cn2ccnc2)cc1 | 7.94 µM [rising, partial curve, poor fit]
CCC/C=C(\CCC)C(NC(=O)c1ccc(C(=O)OC)cc1)c1ccc(C(=O)OC)cc1 (stereo not given) | 12.6 µM [rising, single point]
COc1ccc2nc3c(c(-c4ccccc4)c2c1)CCC3 | 10 µM [rising, single point]
COc1cc([C@H]2c3cc4c(cc3[C@@H](O)[C@@H]3COC(=O)[C@H]23)OCO4)cc(OC)c1OC | 5.01 µM [rising, partial curve] and 501 nM [rising, partial curve, poor fit]
CCCOc1cc(N)ccc1C(=O)OCCN(CC)CC | 6.31 µM [rising, partial curve, poor fit]
CCCCC#Cc1ccccc1CC(=O)Nc1ccccc1 | 10 µM [rising, single point]
Cc1cccc(CNc2cc(-c3ccccc3CN(C)C)ncn2)c1 | 12.6 µM [rising, single point]
O=C(c1ccncc1)N1CCC2(CC1)CN(c1ccccn1)C2 | 15.8 µM [rising, single point]
CN(C)Cc1ccccc1-c1nc(N(C)C)c2ccccc2n1 | 10 µM [rising, partial curve]
C[C@@H](C(=O)NCc1ccccc1)[C@@H]1C[C@@]1(C)[C@@H](NC(=O)OCc1ccccc1)c1ccccc1 | 0.631 µM [rising, single point]
C[C@@H](C(=O)O)[C@H]1C[C@]1(C)[C@H](NC(=O)OCc1ccccc1)c1ccccc1 | 0.631 µM [rising, single point]
C1CCC(C(C[C@@H]2CCCCN2)C2CCCCC2)CC1 | 10 µM [rising, single point]
CC(C)[C@@H](CC(=O)N[C@@H]1CCCC[C@H]1C(=O)N[C@H](CC(=O)N[C@@H](CCC(=O)O)CC(=O)O)Cc1c[nH]c2ccccc12)NC(=O)C[C@H](Cc1ccccc1)NC(=O)[C@@H]1CCCC[C@H]1N | 3.98 µM [rising, partial curve, poor fit]
C[C@@H](C(=O)O)c1cccc(C(=O)c2ccccc2)c1 | 3.16 µM [rising, partial curve, poor fit]
O=C(O)/C=C1\CCCc2ccccc2[C@H]1O | 20 µM [rising, single point]
COC(=O)[C@@]1(Cc2ccccc2)[C@H]2c3cc(C(=O)N(C)C)n(Cc4ccccc4)c3C[C@H]2CN1C(=O)c1ccccc1 | 2.51 µM [rising, partial curve]
C[C@@H](C(=O)O)c1ccc(C(=O)c2cccs2)cc1 | 2.51 µM [rising, full curve, poor fit]
COc1ccc(CNc2ccnc(-c3ccc4c(c3)OCO4)n2)c(OC)c1 | 15.8 µM [rising, single point]
CCCCN1CCCC[C@H]1C(=O)Nc1c(C)cccc1C | 5.01 µM [rising, partial curve]
c1ccc(-c2cccc(N3CCC4(CCNCC4)CC3)c2)cc1 | 15.8 µM [rising, single point]
COC(=O)[C@H]1C[C@@H]1[C@H](NS(=O)(=O)c1ccc(-c2ccccc2)cc1)c1ccccc1 | 10 µM [rising, single point]
